Measurements reported in PubChem BioAssay AID602346 (Broad Institute, 2012).
Where “and” joins values, the source holds several entries; their conditions need not be identical. Equal values may be shown once. About 1,200 (0.35%) of roughly 340,000 compounds were called active. Inconclusive means that the source gave no clear call. Such entries were picked first, then a sample of the others. Rule as the data show it: active = inhibition above about 50% (passing the limit was not always enough); inconclusive = no clear call, values can overlap the other calls; inactive = below about 31%.

Test: blockers of Vif multimerization in cells – imaging, HEK293T, single point, primary screen (AID 602346)
Conditions: Vif self-association by quenched fluorescence, 24 h, at 7.49 µM, hits give high values

| SMILES | inhibition |
| --- | --- |
| O=c1oc2c(-c3ccc([N+](=O)[O-])cc3)cc(O)cc2s1 | inconclusive: 31.9% |
| CC(C)c1ccc(C2(C)NC(=O)N(CC(=O)N3CCN(C(=O)c4cccs4)CC3)C2=O)cc1 (stereo not drawn) | inconclusive: 29.5% |
| COc1ccc(Nc2nc(Nc3ccc(OC)cc3)nc(-n3[nH]c(=O)c(C)c3C)n2)cc1 | active: 56.2% |
| CCC(=O)Nc1ccc2c(c1)C(=O)N(C)C2=O | inconclusive: 4.02% |
| O=C(Nc1scc(-c2ccccc2)c1C(=O)O)c1ccccc1F | inactive: -2.36% |
| NC1C=CC=C(C(=O)O)C1 (stereo not drawn) | inactive: -1.89% |
| COc1ccc(Br)cc1C(=O)Nc1ccc(N2CCCC2)cc1 | active: 143% |
| CC(C)CN(C(=O)CSc1nc2ccccc2c(=O)n1C)C1CCS(=O)(=O)C1 (stereo not drawn) | inconclusive: 32.6% |
| CSc1ccc2c(c1)N(CCC1CCCCN1C)c1ccccc1S2 (stereo not drawn) | inactive: -4.23% and inactive: -3.6% |
| COC(=O)c1ccc(OCC(O)CNC2CCCC2)cc1 (stereo not drawn) | inactive: -1.93% |
| COc1ccc(C(=O)COC(=O)c2ccccc2NS(=O)(=O)c2ccc(O)c([N+](=O)[O-])c2)cc1 | inconclusive: 27.2% |
| COc1ccc(Cc2nnc(SCC(=O)NCCc3ccccc3)o2)cc1 | inconclusive: 48.4% |
| CC1CC(C)CN(CCCNC(=O)CCC(=O)N2CC(C)Oc3ccccc32)C1 (stereo not drawn) | inactive: 0.852% |
| CC1=CC2=C(OC1N(C)C)c1cccc3cccc(c13)C2=O (stereo not drawn) | inconclusive: 32.5% |
| COCCN(Cc1nnc(-c2cccs2)o1)C(=O)c1cccc(S(=O)(=O)N2CCOCC2)c1 | inconclusive: 40.5% |
| Cn1c(-c2ccccc2)cc2c3no[n+]([O-])c3ccc21 | active: 60.9% |
| CCC1=Nc2cc(C(=O)NCC3CCCO3)ccc2Sc2ccc(Cl)cc21 (stereo not drawn) | inactive: -8.02% |
| Cc1cccc(/C=N/n2c(-c3ccco3)n[nH]c2=S)c1 | inconclusive: 27.2% |
| O=C1C(C=Nc2ccccc2O)=C(O)c2ccccc21 | inconclusive: 36% |
| Cc1ccnc(NC(=O)CCCOc2cc(=O)n(C)c3ccccc23)c1 | active: 161% and active: 97.1% |
| CCCCC(c1nnnn1CS(=O)(=O)c1ccc(C)cc1)N1CCN(C)CC1 (stereo not drawn) | inconclusive: 49.9% |
| N/C(=N\OC(=O)c1ccccc1F)c1cccc([N+](=O)[O-])c1 | inconclusive: 35.5% |
| Cc1oc(C(C)(C)C)cc1C(=O)Nc1ccc(N2CCOCC2)cc1 | inconclusive: 39.4% |
| O=C(CN1CCOCC1)N/N=C/c1ccc(-c2ccc(C(=O)O)cc2)o1 | inconclusive: 30.3% |

| SMILES | inhibition |
| --- | --- |
| Nc1nnc(/C=C/c2ccccc2Cl)s1 | inconclusive: 19.1% |
| O=C(NCc1cccnc1)C(=O)NCC1OCCN1S(=O)(=O)c1ccccc1 (stereo not drawn) | inactive: 3.73% |
| CCOc1ccc(NC(=O)C(=S)NC2CCCCC2)cc1 | inactive: 1.27% |
| N#CC1C(=O)c2ccccc2C1c1ccccc1 (stereo not drawn) | inconclusive: 30.2% |
| COc1cc(CNc2ccc3[nH]c(=O)[nH]c3c2)ccc1OCc1ccccc1 | inactive: 0.885% |
| O=C(Cn1nc(Cl)nc1Cl)Nc1ccccc1 | inconclusive: 49.1% |
| CC1CCN(C(=O)COC(=O)c2ccc3ccccc3n2)CC1 | inconclusive: 29.8% |
| Cc1c(C(=O)/C=C/N(C)C)nnn1-c1ccc(Cl)cc1Cl | inactive: 0.784% |
| Cc1nnc(NCCc2ccccc2)c2ccccc12 | inconclusive: 36% |
| Cc1ccc(C(=O)NCc2ccco2)cc1S(=O)(=O)Nc1cccc(C)c1C | inactive: -11.4% |
| CC1=C(C(N)=O)C(c2ccc3c(c2)OCO3)n2nc(-c3cccc(C)c3)nc2N1 (stereo not drawn) | inconclusive: 42.4% |
| CCN(CC(=O)Nc1cc(Cl)cc(Cl)c1)CC(=O)NC1CCS(=O)(=O)C1 (stereo not drawn) | active: 53.7% |
| Cc1cc(C)cc(N2C(=O)N(c3ccccc3C)C3CS(=O)(=O)CC32)c1 (stereo not drawn) | inconclusive: 35.7% |
| OCC1(CC2CCCCO2)CCN(C/C=C/c2ccccc2)CC1 (stereo not drawn) | inconclusive: 31.7% |
| CC(=O)NC(Cc1ccccc1F)C(=O)NC1CCN(C(=O)c2cnccn2)CC1 (stereo not drawn) | active: 54.7% |
| Cc1ccc(C)c(NS(=O)(=O)c2cc(C(=O)Nc3ccccc3-c3ccccc3)ccc2C)c1 | inconclusive: 12.1% |
| CCP(=O)(c1ccccc1)C(C)(C)O (stereo not drawn) | inconclusive: 31.4% |
| Cc1cc(-c2nnc(SCC(=O)Nc3ccc(Cl)cn3)n2N)n[nH]1 | active: 55.5% |
| COc1ccc(/C=C2\C(=O)NCC(=O)N2C)cc1 | inactive: -5.58% |
| O=C(N/N=C/c1ccsc1)c1cc(-c2ccncc2)nc2ccccc12 | inconclusive: 48% |
| O=C(Nc1cccc(C(F)(F)F)c1)C1CC(=O)N(CCc2ccccc2)C1 (stereo not drawn) | inconclusive: 37.1% |
| Brc1nc(-c2ccccc2)nc(-c2ccccc2)c1Br | active: 69.5% |
| Cc1ccc(C(=O)Nc2nn(C)c3cccc(F)c23)cc1 | active: 50.1% |
| COc1ccc(C2CC(=O)N3C(=C2C#N)SCC3(O)c2ccccc2)cc1 (stereo not drawn) | inconclusive: 35.3% |

Sorted by heavy-atom count (low to high): some entries from above.

| SMILES | inhibition |
| --- | --- |
| CCP(=O)(c1ccccc1)C(C)(C)O (stereo not drawn) | inconclusive: 31.4% |
| CCN(CC(=O)Nc1cc(Cl)cc(Cl)c1)CC(=O)NC1CCS(=O)(=O)C1 (stereo not drawn) | active: 53.7% |
| CCC1=Nc2cc(C(=O)NCC3CCCO3)ccc2Sc2ccc(Cl)cc21 (stereo not drawn) | inactive: -8.02% |
| Cc1ccc(C(=O)NCc2ccco2)cc1S(=O)(=O)Nc1cccc(C)c1C | inactive: -11.4% |

Following part:

| SMILES | inhibition |
| --- | --- |
| CC1(C(=O)NS(=O)(=O)c2cccc(C#N)c2)CCN1C(=O)CCc1ccccc1 (stereo not drawn) | inactive: 1.39% |
| COc1ccc2oc(=O)c(C(C)=O)cc2c1 | inconclusive: 46.1% |
| Cc1nn(-c2ccccc2)c(N2CCCC2)c1/C=C1\N=C(c2ccccc2)OC1=O | inconclusive: 24% |
| CCC(=O)Nc1nc(C)c(-c2csc(Nc3cccc(O)c3)n2)s1 | inconclusive: 40.5% |
| COc1ccc(OC)c(Cc2nnc(CCC(=O)N3CCCCCC3)o2)c1 | inconclusive: 49.2% |
| c1ccc(-c2cn3ccccc3n2)cc1 | inactive: 21.2% |
| c1ccc(-n2ncc3c(NCc4ccco4)ncnc32)cc1 | inactive: -2.15% |
| CCCCNC(=O)C1CCN(S(=O)(=O)c2cnc[nH]2)CC1 | inconclusive: 42.7% |
| O=C(Nc1ccc(F)cc1)Nc1ccc([N+](=O)[O-])cn1 | inactive: -1.53% |
| Cc1ccc2cc(NC(=O)C3(C)CCN3C(C)C)ccc2n1 (stereo not drawn) | inconclusive: 32% |
| COC1=C/C(=C/c2c(N)n3nc(-c4ccc(C)cc4)sc3nc2=O)C=CC1=O | inconclusive: 27.7% |
| CC(C)NC(=O)c1cc2c(=O)n3ccccc3nc2s1 | inactive: 0.511% |
| CCOC(=O)c1c(-c2ccccc2)csc1NC(=O)c1cc(-c2ccccc2OC)on1 | inactive: 8.93% |
| Cc1[nH]c2ccccc2c1C(c1ccncc1)N1CCC(C)CC1 (stereo not drawn) | inconclusive: 32.5% |
| CC(=O)c1cc2c(cc1NC(=O)C1CC1)OCO2 | inconclusive: 40% |
| COc1ccc(NC(=O)CSc2nnnn2-c2cccc(OC)c2)cc1 | inconclusive: 36.7% |
| O=C(O)c1ccc(-c2ccc(-c3ccccc3)cc2)s1 | inactive: -7.2% |
| CC(=O)Nc1c2c(nn1-c1cccc(C)c1)CSC2 | inconclusive: 40% |
| CCOc1ccc(C(=O)Nc2ccc(NC(=O)c3ccccc3)c(C)c2)cc1[N+](=O)[O-] | inconclusive: 40.4% |
| COc1ccc(C(=O)Nc2ccc(Cl)cc2C(=O)NCc2ccco2)cc1 | inactive: 13.4% |
| O=C(CC(c1ccccc1)c1ccccc1)NCCOCc1ccccc1 | inconclusive: 27.5% |
| O=C(O)C1=CCCN(CCON=C(c2ccccc2)c2ccccc2)C1 | inconclusive: 41.3% |
| CC(=O)c1cccc(NC(=O)CN(c2ccccc2)S(C)(=O)=O)c1 | inconclusive: 39.4% |
| O=C(COc1ccc(Cl)cc1)NCCNc1ccc([N+](=O)[O-])cc1 | inactive: 6.16% |

| SMILES | inhibition |
| --- | --- |
| CCCNC(=O)c1cc(C2CCCCN2C(=O)CCCc2ccccc2)on1 (stereo not drawn) | inconclusive: 40.9% |
| O=C(CCc1ccncc1)NC1CCCc2c1cnn2-c1cc(F)cc(F)c1 (stereo not drawn) | inactive: 10% |
| O=C(Nc1ccc(Cl)cc1)P(=O)(O)c1ccccc1 | inconclusive: 48.3% |
| S=C(NC1CC1)N1CCc2ccccc2C1 | active: 94% |
| CC(=O)Nc1cc(-c2ccc(N3CCN(C)CC3)cc2)cn2c(-c3ccc(F)cc3)cnc12 | inactive: -22.4% |
| Cc1ccc(OCCNC(=O)Cc2ccc(F)cc2)cc1 | inconclusive: 46.5% |
| COc1ccc(C2NC(=O)NC(O)(C(F)(F)F)C2C(=O)c2ccc(F)cc2)cc1 (stereo not drawn) | inconclusive: 37.3% |
| CC1(Oc2ccc(Cl)cc2)CCN(Cc2ccc(OC(F)(F)F)cc2)C1 (stereo not drawn) | inactive: 6.67% |
| CCOc1ccccc1Nc1ncnc2ccc(Br)cc12 | inactive: -6.73% |
| Clc1ccc(Cl)c(-c2nc(-c3ccncc3)no2)c1 | inconclusive: 26.8% |
| COc1ccc(-n2c(C)cc(C(=O)NC3CCCCC3)c2C)cc1 | inactive: -4.16% |
| O=C(NCCc1ccc(F)cc1)c1ccc2nccnc2c1 | inconclusive: 46.2% |
| CCn1c(C)nnc1SCC(=O)Nc1cccc(C(F)(F)F)c1 | inconclusive: 27.6% |
| Cc1ccc(C)c(NC(=O)CN(C)C(=O)c2cccc(S(=O)(=O)N3CCCC3)c2)c1 | active: 53% |
| CC(C)CN(C(=O)c1ccc2c(c1)OCCO2)c1c(N)n(Cc2ccccc2)c(=O)[nH]c1=O | inconclusive: 37.5% |
| CCOc1ccc(OCC)c(NC(=O)CN2CCN(c3cccc(C)c3)CC2)c1 | inactive: -11.4% |
| O=C(O)c1cc2nccc(-c3ccco3)n2n1 | inactive: -5.66% |
| Cc1csc(NC(=O)C2CCN(S(=O)(=O)c3ccccc3)CC2)n1 | inconclusive: 20.2% |
| O=C1C(O)CCN1Cc1ccccc1 (stereo not drawn) | inconclusive: 49.9% |
| O=S(=O)(c1ccc2ccccc2c1)N1CCCOC1 | inconclusive: 36.1% |
| O=C(Nc1ccc(N2C(=O)C3C4C=CC(C4)C3C2=O)cc1Cl)c1cccs1 (stereo not drawn) | inconclusive: 28.7% |
